Some of the results follow. Shown are side measurements of this screen, not its main read-out; they come without a call. Compounds called inactive in the main read-out are mostly missing here. The note in brackets gives the kind of curve behind each potency; many fits are weak.
Assay: IkB Signaling
Settings: ABC-DLBCL IkBa-CBG/CBR dual luciferase ratio (green luciferase fused to IkBa over red control in OCI-Ly3 lymphoma cells), 4 h; measured here: control luc red channel unless noted
Outline: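 Curves were fitted separately to fusion (green), unfused (red) and ratio luminescence, then classed by r2, magnitude and activity. Cells: OCI-Ly3, 4 h compound plus doxycycline at 37C; 10 uM MG-132 defined full response.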

Structure (SMILES) | AC50
CCOC(=O)c1c(C)oc2nc(C)nc(NCc3ccccc3OC)c12 | 25.1 µM [falling, partial curve]
COc1ccccc1NC(=O)Cn1c(=O)n(CCCCCC(=O)NCc2ccccc2)c(=O)c2sccc21 | 3.16 µM [falling, full curve]
COc1cccc(C(=O)Nc2ccccc2-c2nnc(-c3cccc(OC)c3)o2)c1 | 12.6 µM [falling, partial curve]
COc1ccc2oc(=O)c(-c3nc(-c4cccs4)no3)cc2c1 | 0.0316 µM [rising, full curve]
CC(=O)Cc1nsc(NC(=O)c2ccc(COc3ccc(C)cc3)o2)n1 | 0.2 µM [falling, full curve, poor fit]
O=S1(=O)C=C(Sc2nnc(-c3ccccc3)o2)c2ccccc21 | 0.631 µM [falling, full curve]
COc1ccccc1-c1noc(-c2ccc(NC(C)C)c([N+](=O)[O-])c2)n1 | 0.0126 µM [rising, full curve, poor fit]
COc1ccc2[nH]cc(S(=O)(=O)c3ccc(C)c(C)c3)c(=O)c2c1 | 10 µM [falling, partial curve]
Cc1nc(N2CCN(c3ccccc3)CC2)c2c3c(sc2n1)CCC3 | 15.8 µM [falling, partial curve]
COC(=O)COc1ccc(S(=O)(=O)Nc2ccc3c(c2)OCO3)cc1 | 20 µM [falling, partial curve]
Cc1nn2cc(-c3ccc(-c4ccccc4)cc3)nc2s1 | 39.8 µM [falling, single point]
COc1ccc(Cl)cc1NC(=O)CSC1=Nc2ccccc2C2=NC(CC(=O)NCc3cccs3)C(=O)N12 (configuration not stated) | 12.6 µM [falling, partial curve]
O=C(NCc1ccccc1)c1cnc(N2CCCCC2)c2ccccc12 | 39.8 µM [falling, single point]
COc1cccc(Nc2nc3ccc(C)cc3nc2-n2nc(C)cc2C)c1 | 7.94 µM [falling, full curve]
Cc1ccc(NC(=O)C2=CC(c3ccc4c(c3)OCO4)=NS(=O)(=O)N2C)cc1 | 39.8 µM [falling, single point]
CCOc1cccc(C(=O)Nc2nnc(-c3ccco3)s2)c1 | 10 µM [falling, partial curve]
Cn1c(=O)n(CCCc2ccccc2)c(=O)c2c1nc1n2CCN1c1ccc(F)cc1 | 20 µM [falling, partial curve]
CCOC(=O)c1cc2c(=O)n3ccccc3nc2n(Cc2ccco2)c1=NC(=O)c1ccc(OCC)cc1 | 0.00631 µM [falling, full curve, poor fit]
COc1ccc(NC(=O)c2ccc(Cl)c(S(=O)(=O)N3CCc4ccccc4C3)c2)cn1 | 12.6 µM [falling, partial curve]
Cn1c(NC(=O)c2ccccc2NC(=O)C(C)(C)C)nc2ccccc21 | 5.01 µM [falling, partial curve]
O=C(c1cc(-c2ccc(O)cc2)on1)N1CCN(c2ccccc2)CC1 | 6.31 µM [falling, partial curve]

Structure (SMILES) | AC50
O=C(O)CCCSc1nc2ccccc2s1 | 2 µM [falling, partial curve]
CCCCOC(=O)c1ccc(NC(=O)c2cnc3ccc(C)cn3c2=O)cc1 | 39.8 µM [falling, single point]
CCN(c1cccc(C)c1)c1ncnc2c1cnn2-c1cccc(Cl)c1 | 5.01 µM [falling, partial curve]
Cc1nn(C(=O)c2ccc(Br)cc2)c(C)c1Sc1ccccc1 | 15.8 µM [falling, partial curve]
COc1cc(OC)c(N(C)C(=O)c2sc3nc4n(c(=O)c3c2C)CCCC4)cc1Cl | 10 µM [falling, partial curve]
COc1ccccc1N1CCN(C(=O)COc2ccc(Cl)cc2Br)CC1 | 31.6 µM [falling, single point]
O=C(COc1cccc2ccccc12)N1CCN(c2ccccc2)CC1 | 20 µM [falling, partial curve]
COc1cccc(CNC(=O)c2ccc(NC(=O)N3CC(C)Sc4ccccc43)cc2)c1 (configuration not stated) | 10 µM [falling, partial curve]
Cc1ccccc1Nc1c(-c2ccncc2)nc2ccc(Cl)cn12 | 12.6 µM [falling, partial curve]
CC(C)c1nnc(NC(=O)CC(=O)Nc2ccccc2C(=O)O)s1 | 5.01 µM [falling, partial curve]
COc1cc(NC(=O)c2ccc(NC(=O)N3CCSc4ncccc43)cc2)cc(OC)c1 | 31.6 µM [falling, partial curve]
CC(C)(C)OC(=O)N1CCC(c2c(C(=O)N3CCN(C(=O)c4ccco4)CC3)cnn2-c2ccccc2)CC1 | 20 µM [falling, single point]
Cc1ccc2nc(Cl)c3cc(C(=O)NC4CCCCCC4)sc3c2c1 | 25.1 µM [falling, partial curve, poor fit]
Cc1cccc(NC(=O)Cc2csc(COc3cccc(C)c3)n2)c1 | 31.6 µM [falling, single point]
Cc1cc(C)cc(NC(=O)CCc2c(C)nc3c4cccnc4nn3c2C)c1 | 25.1 µM [falling, partial curve]
CC1=C(C(=O)Nc2ccccc2)C(c2ccc(C)o2)n2c(s/c(=C\c3ccco3)c2=O)=N1 (configuration not stated) | 10 µM [falling, partial curve]
FC(F)(F)c1cccc(Nc2ncnc3ccccc23)c1 | 39.8 µM [falling, single point]
CCOc1ccc(S(=O)(=O)Nc2ccc(-c3ccc(OC)nn3)cc2)cc1 | 3.98 µM [falling, partial curve]
Cc1c2cnn(-c3ccccc3)c(=O)c2c(C)n1CC(=O)NCc1ccccc1 | 0.398 µM [rising, full curve]
Cc1ccc(Cl)cc1NS(=O)(=O)c1cc2c3c(c1)CC(=O)N3CCC2 | 5.01 µM [rising, partial curve]
CN(CC(=O)Nc1ccc(Cl)cc1)CC(=O)Nc1cc(Cl)ccc1C#N | 39.8 µM [falling, partial curve]

Quoted at random: 2 records from the list.
Structure (SMILES) | AC50
COc1ccccc1N1CCN(C(=O)COc2ccc(Cl)cc2Br)CC1 | 31.6 µM [falling, single point]
CCOc1ccc(S(=O)(=O)Nc2ccc(-c3ccc(OC)nn3)cc2)cc1 | 3.98 µM [falling, partial curve]

— PubChem BioAssay AID445 (National Center for Advancing Translational Sciences (NCATS), 2006)
